In the experiment the target is HA-tagged SIRT1 (stably expressed in MEFs) (human) (UniProt Q96EB6). The experiment in a line: affinity purification with mass spectrometry.

Sequences of proteins named here, by UniProt entry; tags and fusion partners are left off.
UniProt Q96EB6: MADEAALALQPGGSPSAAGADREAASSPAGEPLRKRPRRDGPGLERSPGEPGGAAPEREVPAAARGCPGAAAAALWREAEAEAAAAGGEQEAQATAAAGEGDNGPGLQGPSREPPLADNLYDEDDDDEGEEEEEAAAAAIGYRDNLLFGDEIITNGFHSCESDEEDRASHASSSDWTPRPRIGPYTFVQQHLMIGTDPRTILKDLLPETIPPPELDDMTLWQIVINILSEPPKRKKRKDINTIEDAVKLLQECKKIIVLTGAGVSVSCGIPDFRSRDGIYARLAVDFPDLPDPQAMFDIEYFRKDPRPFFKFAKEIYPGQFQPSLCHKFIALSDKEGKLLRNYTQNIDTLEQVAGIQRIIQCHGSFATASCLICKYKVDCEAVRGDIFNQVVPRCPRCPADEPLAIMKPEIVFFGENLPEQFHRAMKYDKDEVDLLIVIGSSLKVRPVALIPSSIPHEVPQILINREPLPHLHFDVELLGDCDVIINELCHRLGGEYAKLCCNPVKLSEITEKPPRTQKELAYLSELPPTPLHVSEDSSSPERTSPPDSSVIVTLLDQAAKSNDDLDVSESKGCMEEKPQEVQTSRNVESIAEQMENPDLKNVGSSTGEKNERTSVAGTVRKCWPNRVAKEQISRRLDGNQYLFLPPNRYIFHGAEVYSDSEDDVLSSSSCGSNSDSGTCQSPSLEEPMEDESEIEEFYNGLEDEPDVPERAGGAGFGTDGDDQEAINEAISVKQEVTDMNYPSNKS

Results are given in words; binding and its absence hold for the method and conditions named. Binding seen in cells or lysates may run through a third protein. These calls come from enrichment with a bait or labelling near it, and not all partners need be listed.

B1: TUB like protein 3 (TULP3), endogenous in MEFs (protein, UniProt O88413 1-460)
chain: MEAARCAPGPRGDSAFDDETLRLRQLKLDNQRALLEKKQRKKRLEPLMVQPNPEARLRRLKPRGSEEHTPLVDPQMPRSDVILHGIDGPAAFLKPEAQDLESKPQVLSVGSPAPEEGTEGSADGESPEETAPKPDLQEILQKHGILSSVNYDEEPDKEEDEGGNLSSPSARSEESAAASQKAASETGASGVTAQQGDAQLGEVENLEDFAYSPAPRGVTVKCKVTRDKKGMDRGLFPTYYMHLEREENRKIFLLAGRKRKKSKTSNYLVSTDPTDLSREGESYIGKLRSNLMGTKFTVYDHGVNPVKAQGLVEKAHTRQELAAICYETNVLGFKGPRKMSVIIPGMNMNHERIPFRPRNEHESLLSKWQNKSMENLIELHNKAPVWNDDTQSYVLNFHGRVTQASVKNFQIVHGNDPDYIVMQFGRVADDVFTLDYNYPLCALQAFAIGLSSFDSKLACE
Turning to B1, the binding result is “binds”.

These data come from publication doi:10.1101/2023.12.07.570558 (bioRxiv, 2023).
